# Structures were worked out from names or drawings and are uncertain.
# By UniProt entry, the sequences of proteins in these tests, tags left out. Where a name states a change or a piece, a line headed by the entry shows the natural chain unless it says otherwise.
# UniProt Q15910, whole entry: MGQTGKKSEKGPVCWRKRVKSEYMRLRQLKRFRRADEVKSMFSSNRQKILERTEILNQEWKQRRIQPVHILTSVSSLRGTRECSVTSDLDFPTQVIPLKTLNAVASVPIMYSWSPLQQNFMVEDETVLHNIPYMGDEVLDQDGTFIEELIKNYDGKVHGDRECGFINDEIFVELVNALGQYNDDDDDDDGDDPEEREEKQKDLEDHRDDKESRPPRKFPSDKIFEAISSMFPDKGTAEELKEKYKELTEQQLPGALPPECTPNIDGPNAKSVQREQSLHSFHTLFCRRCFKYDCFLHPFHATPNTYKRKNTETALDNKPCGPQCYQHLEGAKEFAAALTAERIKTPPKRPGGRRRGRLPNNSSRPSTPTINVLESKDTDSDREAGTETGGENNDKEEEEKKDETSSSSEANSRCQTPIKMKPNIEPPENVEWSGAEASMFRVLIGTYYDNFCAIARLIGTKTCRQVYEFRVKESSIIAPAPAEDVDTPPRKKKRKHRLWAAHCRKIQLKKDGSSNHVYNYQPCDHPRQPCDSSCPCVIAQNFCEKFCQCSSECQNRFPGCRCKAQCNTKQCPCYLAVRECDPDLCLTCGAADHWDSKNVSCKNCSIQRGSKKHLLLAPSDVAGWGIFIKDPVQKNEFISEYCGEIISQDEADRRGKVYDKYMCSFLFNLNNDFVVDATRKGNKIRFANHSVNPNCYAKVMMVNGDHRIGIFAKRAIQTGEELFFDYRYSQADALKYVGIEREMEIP
# UniProt Q15910, whole entry Y641N: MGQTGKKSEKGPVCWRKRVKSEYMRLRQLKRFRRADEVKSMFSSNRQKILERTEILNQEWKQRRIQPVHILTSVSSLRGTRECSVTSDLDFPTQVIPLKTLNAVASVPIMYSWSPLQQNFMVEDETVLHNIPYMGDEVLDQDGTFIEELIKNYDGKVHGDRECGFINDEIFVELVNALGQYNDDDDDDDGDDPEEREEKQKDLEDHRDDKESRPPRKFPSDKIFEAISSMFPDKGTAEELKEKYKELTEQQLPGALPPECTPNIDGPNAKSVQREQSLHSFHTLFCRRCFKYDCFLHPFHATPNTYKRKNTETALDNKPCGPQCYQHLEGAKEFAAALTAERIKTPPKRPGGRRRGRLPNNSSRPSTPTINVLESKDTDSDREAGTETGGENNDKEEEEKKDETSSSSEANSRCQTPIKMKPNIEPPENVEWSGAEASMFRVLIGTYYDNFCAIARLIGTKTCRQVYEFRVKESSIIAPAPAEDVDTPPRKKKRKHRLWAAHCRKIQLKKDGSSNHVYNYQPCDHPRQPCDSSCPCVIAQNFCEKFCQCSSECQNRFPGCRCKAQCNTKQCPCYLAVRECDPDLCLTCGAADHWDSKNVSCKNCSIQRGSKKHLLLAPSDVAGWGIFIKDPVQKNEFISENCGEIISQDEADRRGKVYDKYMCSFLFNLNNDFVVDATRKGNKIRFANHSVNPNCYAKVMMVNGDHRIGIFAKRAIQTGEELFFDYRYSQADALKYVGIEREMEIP
# UniProt O75530, whole entry partner: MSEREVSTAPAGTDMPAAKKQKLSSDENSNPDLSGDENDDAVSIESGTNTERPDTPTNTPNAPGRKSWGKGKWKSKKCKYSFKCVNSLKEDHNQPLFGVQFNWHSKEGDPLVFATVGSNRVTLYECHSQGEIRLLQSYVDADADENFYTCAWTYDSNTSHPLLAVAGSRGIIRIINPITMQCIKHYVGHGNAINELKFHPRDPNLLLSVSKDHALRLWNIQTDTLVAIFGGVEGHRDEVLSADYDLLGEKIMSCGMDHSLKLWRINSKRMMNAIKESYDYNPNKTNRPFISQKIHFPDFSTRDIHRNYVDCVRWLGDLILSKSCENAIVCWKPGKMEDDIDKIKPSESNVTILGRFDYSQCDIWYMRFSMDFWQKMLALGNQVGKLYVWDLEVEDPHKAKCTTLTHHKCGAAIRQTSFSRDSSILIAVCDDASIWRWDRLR
# UniProt Q15022, whole entry partner: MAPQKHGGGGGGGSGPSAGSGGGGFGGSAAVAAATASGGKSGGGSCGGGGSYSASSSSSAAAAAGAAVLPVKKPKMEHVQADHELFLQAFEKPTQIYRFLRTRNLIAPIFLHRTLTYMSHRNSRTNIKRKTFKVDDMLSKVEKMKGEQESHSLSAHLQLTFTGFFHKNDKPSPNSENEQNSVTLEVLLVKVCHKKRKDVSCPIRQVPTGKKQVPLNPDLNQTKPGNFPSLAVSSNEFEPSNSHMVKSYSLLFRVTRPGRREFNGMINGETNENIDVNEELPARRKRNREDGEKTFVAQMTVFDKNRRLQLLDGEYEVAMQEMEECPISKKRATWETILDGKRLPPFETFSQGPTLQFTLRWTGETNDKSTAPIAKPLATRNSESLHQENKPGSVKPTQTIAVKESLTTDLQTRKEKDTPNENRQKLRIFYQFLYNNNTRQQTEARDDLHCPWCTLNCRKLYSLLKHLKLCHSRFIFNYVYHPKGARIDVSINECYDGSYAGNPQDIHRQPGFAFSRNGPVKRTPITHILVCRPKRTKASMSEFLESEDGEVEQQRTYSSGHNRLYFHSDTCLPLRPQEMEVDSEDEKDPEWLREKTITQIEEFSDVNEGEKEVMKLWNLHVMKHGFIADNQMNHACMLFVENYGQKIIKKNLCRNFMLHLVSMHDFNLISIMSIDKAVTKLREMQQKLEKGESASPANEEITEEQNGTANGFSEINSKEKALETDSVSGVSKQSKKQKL
# Key:
# EZH2 = EZH2 (Homo sapiens, UniProt Q15910); assay: EZH2 activity inhibition assay (rPRC2, 3H SAM, biotinylated oligonucleosomes, FlashPlate); assay type: biochemical; details: read-out: EZH2 IC50; rPRC2, 2 nM EZH2, 0.2 μM 3H SAM, top concentration 80 μM
# Y641N EZH2 = Y641N EZH2 (Homo sapiens, UniProt Q15910, Y641N); assay: Y641N EZH2 activity inhibition assay (as EZH2 assay, reconstituted H3K27Me2 oligonucleosomes as substrate); assay type: biochemical; details: read-out: Y641N EZH2 IC50, Y641N EZH2 mutant enzyme
structure (smiles),measurement,setting,value
"Cc1cc(C)c(CNC(=O)c2ccc(C(C)OC3CCOC3)cc2)c(=O)[nH]1 (single isomer, unassigned) [I-82]",IC50,EZH2,1 to 10 µM
same,IC50,Y641N EZH2,10 to 50 µM

# Reference: US9206128B2 (Constellation Pharmaceuticals, Inc., priority 2011, dated 2015)
